Data reported in the supplement of paper PMC10849652.
The list shows a part of the results.

Amino acid sequences for entries named in this document (tags omitted). A change or cut given only in a name is not applied to a line headed by its entry.
UniProt Q8WV92, whole entry, looked up: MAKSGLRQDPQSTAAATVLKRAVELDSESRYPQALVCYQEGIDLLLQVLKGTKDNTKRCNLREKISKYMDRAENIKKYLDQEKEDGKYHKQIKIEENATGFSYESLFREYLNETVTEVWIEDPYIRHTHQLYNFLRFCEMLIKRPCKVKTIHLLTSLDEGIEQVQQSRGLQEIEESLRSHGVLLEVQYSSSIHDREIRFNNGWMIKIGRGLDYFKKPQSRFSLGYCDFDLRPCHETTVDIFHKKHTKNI
UniProt Q86YT6, whole entry, looked up: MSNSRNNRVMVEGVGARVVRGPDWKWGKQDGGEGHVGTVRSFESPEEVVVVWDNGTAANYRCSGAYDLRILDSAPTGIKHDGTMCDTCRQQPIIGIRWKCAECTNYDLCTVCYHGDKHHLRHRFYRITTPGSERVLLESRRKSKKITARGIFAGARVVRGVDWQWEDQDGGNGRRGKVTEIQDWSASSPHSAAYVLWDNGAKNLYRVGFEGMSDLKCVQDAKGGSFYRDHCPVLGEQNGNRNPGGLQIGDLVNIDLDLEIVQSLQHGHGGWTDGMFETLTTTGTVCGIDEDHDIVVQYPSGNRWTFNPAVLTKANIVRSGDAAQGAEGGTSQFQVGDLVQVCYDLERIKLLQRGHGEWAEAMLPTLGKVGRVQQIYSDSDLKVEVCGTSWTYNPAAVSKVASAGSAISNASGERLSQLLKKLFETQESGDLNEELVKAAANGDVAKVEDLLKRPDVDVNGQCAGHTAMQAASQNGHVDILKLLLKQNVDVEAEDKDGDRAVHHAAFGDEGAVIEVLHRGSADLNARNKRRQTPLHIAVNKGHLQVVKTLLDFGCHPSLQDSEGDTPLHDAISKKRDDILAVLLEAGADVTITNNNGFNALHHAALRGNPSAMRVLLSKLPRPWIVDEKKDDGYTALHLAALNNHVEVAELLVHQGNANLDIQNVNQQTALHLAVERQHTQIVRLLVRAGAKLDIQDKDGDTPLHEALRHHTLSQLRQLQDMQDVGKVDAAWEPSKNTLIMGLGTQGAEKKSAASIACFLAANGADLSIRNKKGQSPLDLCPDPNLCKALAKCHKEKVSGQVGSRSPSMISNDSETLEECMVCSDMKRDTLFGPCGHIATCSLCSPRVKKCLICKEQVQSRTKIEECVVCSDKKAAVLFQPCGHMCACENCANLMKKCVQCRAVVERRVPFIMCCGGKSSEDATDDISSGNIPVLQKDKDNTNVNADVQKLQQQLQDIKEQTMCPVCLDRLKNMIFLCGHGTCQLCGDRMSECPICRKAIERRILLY
UniProt Q8N4V1: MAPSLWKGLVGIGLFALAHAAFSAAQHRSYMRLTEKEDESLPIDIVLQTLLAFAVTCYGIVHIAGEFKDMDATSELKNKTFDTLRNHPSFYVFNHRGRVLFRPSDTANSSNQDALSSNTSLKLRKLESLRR
UniProt Q6WCQ1: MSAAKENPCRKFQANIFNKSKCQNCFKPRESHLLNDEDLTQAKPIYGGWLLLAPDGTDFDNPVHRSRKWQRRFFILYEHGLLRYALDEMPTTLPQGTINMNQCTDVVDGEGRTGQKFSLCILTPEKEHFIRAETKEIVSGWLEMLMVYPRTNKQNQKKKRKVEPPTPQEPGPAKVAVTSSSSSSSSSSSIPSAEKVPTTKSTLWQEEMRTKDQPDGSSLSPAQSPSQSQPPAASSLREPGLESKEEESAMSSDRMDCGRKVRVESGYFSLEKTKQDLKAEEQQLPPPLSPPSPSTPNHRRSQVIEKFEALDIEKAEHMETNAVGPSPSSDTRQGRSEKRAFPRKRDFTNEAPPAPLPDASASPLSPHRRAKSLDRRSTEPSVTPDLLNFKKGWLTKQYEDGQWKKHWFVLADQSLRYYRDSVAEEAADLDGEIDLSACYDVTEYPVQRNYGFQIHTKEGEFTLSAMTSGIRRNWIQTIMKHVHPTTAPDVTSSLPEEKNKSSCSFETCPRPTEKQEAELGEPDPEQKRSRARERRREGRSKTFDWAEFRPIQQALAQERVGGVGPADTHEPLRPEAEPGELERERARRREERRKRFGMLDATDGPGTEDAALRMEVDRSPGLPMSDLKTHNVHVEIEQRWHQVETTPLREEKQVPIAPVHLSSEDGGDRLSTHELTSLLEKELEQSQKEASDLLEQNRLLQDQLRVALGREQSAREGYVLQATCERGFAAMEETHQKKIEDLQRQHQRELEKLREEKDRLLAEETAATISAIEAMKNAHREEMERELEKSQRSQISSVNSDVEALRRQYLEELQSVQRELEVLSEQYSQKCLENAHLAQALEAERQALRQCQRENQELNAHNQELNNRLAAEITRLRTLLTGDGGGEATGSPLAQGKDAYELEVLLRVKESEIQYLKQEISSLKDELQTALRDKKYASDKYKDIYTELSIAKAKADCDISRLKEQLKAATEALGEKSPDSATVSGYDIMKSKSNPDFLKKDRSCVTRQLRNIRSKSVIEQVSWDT
UniProt Q9UQ53: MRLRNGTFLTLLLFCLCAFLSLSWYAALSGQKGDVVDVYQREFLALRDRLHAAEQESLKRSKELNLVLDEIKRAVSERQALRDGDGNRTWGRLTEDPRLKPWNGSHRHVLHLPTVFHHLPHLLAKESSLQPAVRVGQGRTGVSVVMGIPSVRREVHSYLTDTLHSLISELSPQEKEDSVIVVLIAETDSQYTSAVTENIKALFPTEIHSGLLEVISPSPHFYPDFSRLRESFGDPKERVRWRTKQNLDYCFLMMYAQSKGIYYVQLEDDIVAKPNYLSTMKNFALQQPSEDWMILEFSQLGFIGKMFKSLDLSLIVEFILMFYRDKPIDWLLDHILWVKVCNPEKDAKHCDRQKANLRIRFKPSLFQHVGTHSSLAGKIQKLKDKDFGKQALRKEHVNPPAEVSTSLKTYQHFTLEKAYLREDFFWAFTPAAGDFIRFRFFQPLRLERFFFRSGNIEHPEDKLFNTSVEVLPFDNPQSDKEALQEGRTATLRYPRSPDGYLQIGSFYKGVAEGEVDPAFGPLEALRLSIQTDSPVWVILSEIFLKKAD
UniProt Q8N5J2: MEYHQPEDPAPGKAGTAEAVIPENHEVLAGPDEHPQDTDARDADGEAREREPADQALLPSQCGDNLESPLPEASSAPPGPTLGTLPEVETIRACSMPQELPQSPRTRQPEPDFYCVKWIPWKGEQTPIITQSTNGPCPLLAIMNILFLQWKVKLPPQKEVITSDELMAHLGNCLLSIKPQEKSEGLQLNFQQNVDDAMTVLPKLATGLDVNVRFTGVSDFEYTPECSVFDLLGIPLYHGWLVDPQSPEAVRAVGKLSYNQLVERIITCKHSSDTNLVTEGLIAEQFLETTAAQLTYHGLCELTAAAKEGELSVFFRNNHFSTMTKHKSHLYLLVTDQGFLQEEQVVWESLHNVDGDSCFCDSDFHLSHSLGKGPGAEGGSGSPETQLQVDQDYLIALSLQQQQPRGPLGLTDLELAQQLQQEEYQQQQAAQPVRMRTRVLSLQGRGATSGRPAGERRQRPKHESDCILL
UniProt P50219: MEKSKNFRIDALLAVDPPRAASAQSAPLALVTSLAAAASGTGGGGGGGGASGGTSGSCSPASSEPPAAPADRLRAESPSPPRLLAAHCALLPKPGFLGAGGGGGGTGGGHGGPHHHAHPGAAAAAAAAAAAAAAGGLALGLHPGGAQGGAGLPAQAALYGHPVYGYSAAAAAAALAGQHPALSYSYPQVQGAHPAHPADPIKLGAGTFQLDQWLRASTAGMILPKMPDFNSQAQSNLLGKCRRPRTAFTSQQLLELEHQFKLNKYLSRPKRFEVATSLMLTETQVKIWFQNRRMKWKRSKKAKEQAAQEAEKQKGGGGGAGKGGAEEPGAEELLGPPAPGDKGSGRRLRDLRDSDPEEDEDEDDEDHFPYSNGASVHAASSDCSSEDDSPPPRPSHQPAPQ
UniProt Q99549: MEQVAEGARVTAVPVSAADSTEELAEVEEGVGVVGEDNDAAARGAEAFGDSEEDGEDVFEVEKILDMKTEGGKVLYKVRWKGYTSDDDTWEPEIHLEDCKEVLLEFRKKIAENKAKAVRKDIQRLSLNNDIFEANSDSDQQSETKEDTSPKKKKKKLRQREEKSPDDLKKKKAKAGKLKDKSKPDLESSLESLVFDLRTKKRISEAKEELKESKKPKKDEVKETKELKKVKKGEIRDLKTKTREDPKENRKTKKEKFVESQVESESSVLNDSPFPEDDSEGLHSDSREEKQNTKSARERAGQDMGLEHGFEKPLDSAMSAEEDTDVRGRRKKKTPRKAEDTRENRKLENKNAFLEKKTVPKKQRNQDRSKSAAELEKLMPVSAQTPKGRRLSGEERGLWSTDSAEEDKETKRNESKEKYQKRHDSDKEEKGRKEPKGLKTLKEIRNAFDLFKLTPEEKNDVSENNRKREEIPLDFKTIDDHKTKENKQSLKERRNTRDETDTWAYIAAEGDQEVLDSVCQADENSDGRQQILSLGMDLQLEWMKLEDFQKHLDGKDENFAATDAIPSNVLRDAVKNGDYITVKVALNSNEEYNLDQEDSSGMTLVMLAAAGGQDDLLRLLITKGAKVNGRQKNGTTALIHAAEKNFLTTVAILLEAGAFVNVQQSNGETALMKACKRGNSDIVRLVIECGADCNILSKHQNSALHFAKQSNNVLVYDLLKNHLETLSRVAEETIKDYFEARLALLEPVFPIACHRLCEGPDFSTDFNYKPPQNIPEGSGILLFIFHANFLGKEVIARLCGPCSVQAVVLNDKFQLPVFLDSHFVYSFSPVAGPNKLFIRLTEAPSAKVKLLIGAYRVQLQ
UniProt Q99547: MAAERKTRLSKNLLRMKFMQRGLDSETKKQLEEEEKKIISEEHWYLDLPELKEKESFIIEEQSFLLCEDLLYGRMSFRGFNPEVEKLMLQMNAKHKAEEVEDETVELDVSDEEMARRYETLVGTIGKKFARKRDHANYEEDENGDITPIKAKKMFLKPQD
UniProt Q9NYP9: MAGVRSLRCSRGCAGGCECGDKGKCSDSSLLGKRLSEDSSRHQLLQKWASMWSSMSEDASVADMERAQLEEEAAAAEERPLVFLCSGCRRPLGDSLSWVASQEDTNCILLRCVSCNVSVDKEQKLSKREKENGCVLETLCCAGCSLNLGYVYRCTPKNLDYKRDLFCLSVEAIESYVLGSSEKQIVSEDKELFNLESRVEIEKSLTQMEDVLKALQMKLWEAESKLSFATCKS
UniProt Q6UWV2: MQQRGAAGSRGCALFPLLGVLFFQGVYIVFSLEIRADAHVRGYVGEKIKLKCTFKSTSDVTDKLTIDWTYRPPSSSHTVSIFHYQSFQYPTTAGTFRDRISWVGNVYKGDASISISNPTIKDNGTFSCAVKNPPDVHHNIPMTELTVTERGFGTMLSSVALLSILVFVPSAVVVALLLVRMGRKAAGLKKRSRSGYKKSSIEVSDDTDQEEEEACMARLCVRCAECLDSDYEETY
UniProt O60291: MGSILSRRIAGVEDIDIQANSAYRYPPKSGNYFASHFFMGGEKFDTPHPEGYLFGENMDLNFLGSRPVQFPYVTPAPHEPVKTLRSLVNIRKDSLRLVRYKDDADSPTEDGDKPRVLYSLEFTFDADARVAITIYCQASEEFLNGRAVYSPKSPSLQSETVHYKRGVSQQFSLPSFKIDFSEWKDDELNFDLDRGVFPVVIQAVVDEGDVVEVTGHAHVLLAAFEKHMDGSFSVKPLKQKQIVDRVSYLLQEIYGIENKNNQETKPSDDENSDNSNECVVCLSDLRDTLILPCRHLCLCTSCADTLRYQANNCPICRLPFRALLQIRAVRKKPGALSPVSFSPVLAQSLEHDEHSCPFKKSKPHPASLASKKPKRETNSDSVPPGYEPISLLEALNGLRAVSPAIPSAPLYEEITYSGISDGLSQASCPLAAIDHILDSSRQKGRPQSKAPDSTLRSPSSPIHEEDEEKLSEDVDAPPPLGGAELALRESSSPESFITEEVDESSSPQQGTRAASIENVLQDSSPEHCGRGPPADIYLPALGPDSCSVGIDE
UniProt Q9NPA3, whole entry, looked up: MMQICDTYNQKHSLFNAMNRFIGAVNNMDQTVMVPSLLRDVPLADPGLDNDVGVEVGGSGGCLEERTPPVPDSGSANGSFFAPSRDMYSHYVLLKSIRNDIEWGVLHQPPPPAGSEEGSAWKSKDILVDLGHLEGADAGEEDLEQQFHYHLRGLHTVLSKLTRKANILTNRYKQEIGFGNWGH
UniProt Q9HBH9: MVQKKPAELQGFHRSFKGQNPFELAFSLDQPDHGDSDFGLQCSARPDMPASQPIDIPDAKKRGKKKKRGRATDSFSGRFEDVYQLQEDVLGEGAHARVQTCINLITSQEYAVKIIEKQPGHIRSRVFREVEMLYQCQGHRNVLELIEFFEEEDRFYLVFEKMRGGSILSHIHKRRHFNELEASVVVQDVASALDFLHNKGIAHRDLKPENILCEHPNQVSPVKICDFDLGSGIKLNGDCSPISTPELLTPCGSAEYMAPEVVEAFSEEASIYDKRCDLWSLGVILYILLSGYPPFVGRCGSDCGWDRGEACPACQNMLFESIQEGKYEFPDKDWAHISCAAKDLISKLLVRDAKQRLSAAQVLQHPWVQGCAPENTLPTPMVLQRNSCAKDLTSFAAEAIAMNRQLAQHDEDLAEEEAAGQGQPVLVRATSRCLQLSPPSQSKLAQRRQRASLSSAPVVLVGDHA

How the values were obtained:
Assay in all cases: log2 fold change, soluble protein after heating vs DMSO (PISA); higher = thermal stabilisation; K562 lysate, 10 uM; active = over 0.2 and 3.5 SD of the protein, either way, in both replicates (recomputed)
ibrutinib = compound: C=CC(=O)N1CCC[C@@H](n2nc(-c3ccc(Oc4ccccc4)cc3)c3c(N)ncnc32)C1 [ibrutinib]
Procedure, shortened: (§1)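 Dounce homogenisation of K562 pellets in PBS pH 7.4 with 1 mM MgCl2 produced a crude extract, used at 1 mg/mL protein. Exposure to 10 μM compound lasted 30 min, and aliquots were then heated for 3 min across 48°C-58°C, pooled and brought to 0.5% NP-40 at 4°C. The supernatant after 21,000xg for 90 min was quantified by TMTpro 16plex LC-MS/MS with channel sums equalised. Duplicate values are given as log-two fold change in thermal stability relative to solvent controls.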

[1] = compound: CC(=O)c1cnc2ccc(-c3cc(Cl)c(O)c(Cl)c3)nc2c1N[C@H]1CC[C@H](CN(C)C)CC1
Procedure, shortened: as §1

ralimetinib = compound: CC(C)(C)Cn1c(N)nc2ccc(-c3[nH]c(C(C)(C)C)nc3-c3ccc(F)cc3)nc21 [ralimetinib]
Procedure, shortened: as §1

[2] = compound: CC(C)(O)CC(=O)NCCn1ccc2ncnc(Nc3ccc(Oc4cccc(C(F)(F)F)c4)c(Cl)c3)c21
Procedure, shortened: as §1

[3] = compound: CC(C)C1=C2N=C(C=C(N2N=C1)NCC3=CC=CC=C3)NCCCCCCN
Procedure, shortened: as §1

[4] = compound: CC1=C(C(CC(=O)N1)C2=CC=C(C=C2)C(F)(F)F)C(=O)NC3=C(C=C4C(=C3)C=NN4)F
Procedure, shortened: as §1

[5] = compound: CC1=C(C2=C(C=C1)C(=O)C3=CC=CC=C3N2CCCN)C
Procedure, shortened: as §1

[6] = compound: CC1=C(C=C(C=C1)NC(=O)C2=CC(=CC=C2)C(C)(C)C#N)NC3=CC4=C(C=C3)N=CN(C4=O)C
Procedure, shortened: as §1

[7] = compound: CC1=C(C=C(C=C1)NC(=O)C2=CC(=CC=C2)N(C)C)NC(=O)C3=CC=C(C=C3)O
Procedure, shortened: as §1

[8] = compound: CC1=CC=C(C=C1)SC2=C3C=C(SC3=CN=C2)C(=O)N
Procedure, shortened: as §1

vemurafenib = compound: CCCS(=O)(=O)Nc1ccc(F)c(C(=O)c2c[nH]c3ncc(-c4ccc(Cl)cc4)cc23)c1F [vemurafenib]
Procedure, shortened: as §1

[9] = compound: CCCS(=O)(=O)Nc1ccc(F)c(C(=O)c2c[nH]c3ncc(Cl)cc23)c1F
Procedure, shortened: as §1

barasertib = compound: CCN(CCCOc1ccc2c(Nc3cc(CC(=O)Nc4cccc(F)c4)[nH]n3)ncnc2c1)CCOP(=O)(O)O [barasertib]
Procedure, shortened: as §1

[10] = compound: CC[C@@H]1C(=O)N(C)c2cnc(Nc3ccc(C(=O)NC4CCN(C)CC4)cc3OC)nc2N1C1CCCC1
Procedure, shortened: as §1

volasertib = compound: CC[C@@H]1C(=O)N(C)c2cnc(Nc3ccc(C(=O)N[C@H]4CC[C@H](N5CCN(CC6CC6)CC5)CC4)cc3OC)nc2N1C(C)C [volasertib]
Procedure, shortened: as §1

[11] = compound: CCn1c(C(=O)N(C2CC2)C2CC2)cc2c3c(ncn3C)c(Nc3cc(C)n(C)n3)nc21
Procedure, shortened: as §1

[12] = compound: CCn1cc(-c2ccnc3[nH]c(-c4cccc(CN(C)C)c4)cc23)c(-c2ccc(NC(=O)N(C)C)cc2)n1
Procedure, shortened: as §1

[13] = compound: CN1CCC(CNc2ccc3ncc(-c4cccc(OC(F)(F)F)c4)n3n2)CC1
Procedure, shortened: as §1

saracatinib = compound: CN1CCN(CCOc2cc(OC3CCOCC3)c3c(Nc4c(Cl)ccc5c4OCO5)ncnc3c2)CC1 [saracatinib]
Procedure, shortened: as §1

sotrastaurin = compound: CN1CCN(c2nc(C3=C(c4c[nH]c5ccccc45)C(=O)NC3=O)c3ccccc3n2)CC1 [sotrastaurin]
Procedure, shortened: as §1

Measured: log2 fold change

MITD1 (UniProt Q8WV92)
inactive: ibrutinib 0.007 | [1] -0.067 | ralimetinib -0.039 | [2] 0.01 | [3] 0.024 | [4] -0.02 | [5] -0.071 | [6] -0.059 | [7] 0.058 | [8] -0.027 | vemurafenib 0.044 | [9] 0.001 | barasertib 0.057 | [10] 0.013 | volasertib -0.07 | [11] -0.031 | [12] -0.269 | [13] -0.163 | saracatinib 0.024 | sotrastaurin 0.039

MIB1 (UniProt Q86YT6)
inactive: ibrutinib 0.026 | [1] -0.112 | ralimetinib 0.019 | [2] -0.068 | [3] -0.042 | [4] -0.065 | [5] 0.073 | [6] -0.004 | [7] -0.022 | [8] -0.055 | vemurafenib -0.025 | [9] -0.055 | barasertib 0.007 | [10] -0.056 | volasertib -0.112 | [11] -0.065 | [12] -0.006 | [13] 0.022 | saracatinib -0.004 | sotrastaurin -0.04

MMGT1 (UniProt Q8N4V1)
inactive: ibrutinib 0.003 | [1] -0.004 | ralimetinib 0.059 | [2] 0.041 | [3] -0.016 | [4] 0.003 | [5] -0.069 | [6] 0.014 | [7] -0.021 | [8] 0.013 | [9] 0.008 | barasertib 0.056 | [10] 0.059 | volasertib -0.012 | [11] 0.038 | [12] -0.071 | [13] 0.079 | saracatinib 0.035 | sotrastaurin 0.021

MPRIP isoform 2 (UniProt Q6WCQ1)
inactive: ibrutinib 0.026 | [1] -0.086 | ralimetinib 0.027 | [2] -0.018 | [3] -0.005 | [4] -0.013 | [5] 0.001 | [6] -0.036 | [7] 0.072 | [8] 0.029 | vemurafenib -0.005 | [9] 0.128 | barasertib -0.001 | [10] 0.046 | volasertib 0.074 | [11] -0.019 | [12] 0.101 | [13] -0.015 | saracatinib 0.108 | sotrastaurin -0.015

MGA (UniProt Q8IWI9)
inactive: ibrutinib 0.147 | [1] 0.141 | ralimetinib 0.022 | [2] -0.031 | [3] 0.002 | [4] -0.027 | [5] -0.081 | [6] 0.046 | [7] 0.079 | [8] -0.039 | vemurafenib -0.019 | [9] 0.102 | barasertib 0.062 | [10] 0.135 | volasertib -0.061 | [11] -0.108 | [12] 0.07 | [13] -0.004 | saracatinib 0.074 | sotrastaurin 0.031

Copied from the results shown (2 entries):
MMGT1 (UniProt Q8N4V1)
inactive: ibrutinib 0.003 | [1] -0.004 | ralimetinib 0.059 | [2] 0.041 | [3] -0.016 | [4] 0.003 | [5] -0.069 | [6] 0.014 | [7] -0.021 | [8] 0.013 | [9] 0.008 | barasertib 0.056 | [10] 0.059 | volasertib -0.012 | [11] 0.038 | [12] -0.071 | [13] 0.079 | saracatinib 0.035 | sotrastaurin 0.021

MPRIP isoform 2 (UniProt Q6WCQ1)
inactive: ibrutinib 0.026 | [1] -0.086 | ralimetinib 0.027 | [2] -0.018 | [3] -0.005 | [4] -0.013 | [5] 0.001 | [6] -0.036 | [7] 0.072 | [8] 0.029 | vemurafenib -0.005 | [9] 0.128 | barasertib -0.001 | [10] 0.046 | volasertib 0.074 | [11] -0.019 | [12] 0.101 | [13] -0.015 | saracatinib 0.108 | sotrastaurin -0.015

Following part.

MME (UniProt P08473)
inactive: ibrutinib 0.286 | [1] -0.093 | ralimetinib -0.117 | [2] -0.156 | [3] -0.012 | [4] -0.024 | [5] -0.23 | [6] 0.007 | [7] -0.025 | [8] -0.043 | [9] -0.092 | barasertib -0.084 | volasertib 0.001 | [11] 0.075 | [12] -0.044 | [13] 0.009 | saracatinib -0.114 | sotrastaurin 0.016

MGAT4B isoform 3 (UniProt Q9UQ53)
inactive: ibrutinib 0.015 | [1] -0.027 | ralimetinib 0.008 | [2] -0.011 | [3] 0.009 | [4] -0.099 | [5] -0.034 | [6] -0.034 | [7] 0.026 | [8] -0.023 | vemurafenib 0.444 | [9] 0.058 | barasertib 0.024 | [10] 0.016 | volasertib 0.018 | [11] 0.087 | [12] -0.114 | [13] -0.138 | saracatinib 0.002 | sotrastaurin -0.009

MICAL2 (UniProt O94851)
inactive: ibrutinib 0.05 | [1] 0.2 | ralimetinib -0.046 | [2] 0.056 | [3] -0.004 | [4] -0.075 | [5] 0.236 | [6] 0.049 | [7] 0.034 | [8] -0.133 | vemurafenib 0.058 | [9] -0.223 | barasertib -0.045 | volasertib 0.052 | [11] -0.12 | [12] -0.094 | [13] 0.047 | saracatinib -0.206 | sotrastaurin -0.055

MINDY1 isoform 3 (UniProt Q8N5J2)
inactive: ibrutinib 0.199 | [1] 0 | ralimetinib 0.001 | [2] -0.121 | [3] -0.022 | [4] -0.179 | [5] -0.161 | [6] -0.034 | [7] 0.015 | [8] 0.065 | vemurafenib -0.049 | [9] -0.26 | barasertib -0.201 | [10] 0.059 | volasertib -0.041 | [11] -0.106 | saracatinib 0.076 | sotrastaurin 0.074

MNX1 (UniProt P50219)
inactive: ibrutinib 0.114 | [1] 0.024 | ralimetinib 0.004 | [2] 0.046 | [3] 0.01 | [5] -0.007 | [6] -0.106 | [7] -0.029 | [8] -0.082 | vemurafenib 0.014 | [9] -0.008 | barasertib -0.114 | [10] 0.095 | volasertib -0.059 | [11] 0.108 | [12] -0.153 | [13] 0.058 | saracatinib 0.078 | sotrastaurin 0.052

MPHOSPH8 (UniProt Q99549)
inactive: ibrutinib 0.176 | [1] -0.059 | ralimetinib -0.082 | [2] -0.055 | [3] -0.212 | [5] 0.009 | [6] 0.074 | [7] 0.044 | [8] -0.051 | vemurafenib -0.135 | [9] -0.008 | barasertib 0.098 | [10] 0.16 | volasertib 0.024 | [11] 0.01 | [12] 0.073 | [13] 0.058 | saracatinib 0.048 | sotrastaurin -0.029

MPHOSPH6 (UniProt Q99547)
inactive: ibrutinib 0.002 | [1] -0.014 | ralimetinib 0.001 | [2] 0 | [3] -0.014 | [4] -0.006 | [5] 0.025 | [6] 0.037 | [7] 0.01 | [8] 0.017 | vemurafenib -0.086 | [9] 0.003 | barasertib 0.024 | [10] 0.011 | volasertib 0.016 | [11] -0.04 | [12] 0.003 | [13] -0.039 | saracatinib 0.008 | sotrastaurin 0.033

MRPL16 (UniProt Q9NX20)
inactive: ibrutinib 0.061 | [1] 0.088 | ralimetinib 0.042 | [2] -0.013 | [3] 0.069 | [4] 0.107 | [5] -0.062 | [6] 0.089 | [7] 0.043 | [8] 0.071 | vemurafenib 0.063 | [9] 0.01 | barasertib 0.054 | [10] -0.064 | volasertib -0.08 | [11] -0.018 | saracatinib -0.051 | sotrastaurin -0.042

MIS18A (UniProt Q9NYP9)
inactive: ibrutinib 0.018 | [1] 0.002 | ralimetinib 0.003 | [2] 0.019 | [3] -0.012 | [4] 0.003 | [5] 0 | [6] 0.008 | [7] 0.02 | [8] -0.031 | vemurafenib -0.035 | [9] 0.006 | barasertib -0.021 | [10] -0.017 | volasertib 0.007 | [11] 0.021 | [12] 0.223 | [13] -0.14 | saracatinib -0.025 | sotrastaurin 0.033

MPZL3 (UniProt Q6UWV2)
inactive: ralimetinib -0.105 | [2] 0.057 | [7] 0.022 | [11] 0.051

MGRN1 isoform 2 (UniProt O60291)
inactive: ibrutinib -0.111 | [1] 0.093 | [3] 0 | [5] -0.127 | [6] -0.066 | [8] 0.049 | vemurafenib 0.11 | [9] -0.032 | barasertib 0.026 | [10] 0.075 | volasertib -0.054 | [12] 0.026 | [13] -0.043 | saracatinib -0.006 | sotrastaurin -0.133

MID1IP1 (UniProt Q9NPA3)
inactive: ibrutinib 0.035 | ralimetinib -0.054 | [2] 0.051 | [3] -0.024 | [4] 0.047 | [5] -0.005 | [6] 0.023 | [7] -0.084 | vemurafenib -0.01 | barasertib 0.085 | [10] -0.015 | [11] 0.063 | [12] -0.001 | [13] -0.049 | saracatinib 0.017 | sotrastaurin 0.041

MKNK2 (UniProt Q9HBH9)
inactive: ralimetinib 0.027 | [2] -0.166 | [3] 0.017 | [4] 0.087 | [5] 0.109 | [7] 0.092 | vemurafenib 0.239 | [10] 0 | [11] -0.069 | saracatinib 0.11
